Taken from: PubChem BioAssay AID686943 (Drosophila RNAi Screening Center, 2013)
Aim: 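Fly genes whose loss alters ERK activation after insulin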 (primary screen). Cell system: Drosophila S2R+ haemocyte-like cells expressing YFP-tagged ERK (Rolled). Knock-down reagent: long dsRNA against Drosophila genes. Conditions: insulin stimulation versus unstimulated cells; dose and duration not given. Read-out: 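Per-plate z-scores of phospho-ERK immunostaining normalised to YFP-tagged ERK, measured with and without insulin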. Reading the numbers: replicate 1, z-score of dpERK with insulin and replicate 2, z-score of dpERK with insulin: higher = more active ERK per ERK-YFP after insulin; replicate 1, z-score of dpERK under basal conditions: higher = more basal active ERK per ERK-YFP; replicate 1, z-score of ERK-YFP with insulin: higher = more YFP-tagged ERK signal.
The deposit covers about 23,000 reagents; shown is a random part of those with a known target gene and a result. 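Extra replicates exist only for a retested subset of genes; insulin dose and duration not given; both raised and lowered dpERK matter.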 Names joined by + are all predicted targets of the reagent. The record does not give: the amount of reagent, the time to read-out.

Target gene | amplicon | replicate 1, z-score of dpERK with insulin | replicate 2, z-score of dpERK with insulin | replicate 1, z-score of dpERK under basal conditions | replicate 1, z-score of ERK-YFP with insulin
Usp39 (GeneID 32881) | DRSC20032 | 2.34 | 1.24 | -0.64 | -0.13
klu (GeneID 39228) | DRSC11357 | -0.25 | 0.19 | -0.46 | -0.48
mldr (GeneID 31568) | DRSC18100 | 0.91 | 0.52 | 0.74 | 0.34
CG4372 (GeneID 37490) | DRSC04466 | -0.31 | -0.32 | -0.05 | 0.13
CG16854 (GeneID 34539) | DRSC02536 | 0.11 | 0.22 | 0.26 | 0.38
norpA (GeneID 31376) | DRSC18806 | -0.18 | 0.91 | -0.37 | -3.4
CG31464 (GeneID 318749) | DRSC14345 | 1.08 | 0.43 | -0.48 | -0.11
Ipk1 (GeneID 37360) | DRSC04235 | -0.05 | -0.32 | -0.37 | -0.18
Ipk1 (GeneID 37360) | DRSC04236 | 0.3 | 0.59 | 0.09 | -0.58
Ipk1 (GeneID 37360) | DRSC04237 | 1.16 | 0.66 | 0.87 | -0.34
Ir75a (GeneID 39982) | DRSC10188 | 0.17 | -0.38 | 0.09 | 0.22
Lcp1 (GeneID 35817) | DRSC07455 | 0.33 | 0.18 | -0.58 | -0.03
CG14744 (GeneID 35858) | DRSC06480 | 0.19 | 0.1 | -0.19 | -0.21
IntS8 (GeneID 36886) | DRSC07417 | -1.99 | -1.18 | -0.05 | 1.3
CG42557 + CG42558 | DRSC13963 | -0.09 | 0.76 | 0.66 | -0.35
CG42557 + CG42558 | DRSC16329 | -0.16 | -0.35 | 0.11 | 0.55
Rsph3 (GeneID 38751) | DRSC09696 | 1.08 | -0.57 | 0.77 | 0.06
Rsph3 (GeneID 38751) | DRSC10211 | 0.14 | 0.3 | 1.49 | 0.28
tomboy20 (GeneID 41285) | DRSC14913 | -0.12 | 0.53 | -0.3 | 0.41
CG17726 (GeneID 41349) | DRSC15255 | 0.81 | -0.45 | -0.56 | -0.13
Rcd6 (GeneID 37332) | DRSC06054 | 0.5 | 1.38 | 0.84 | -0.32
CAHbeta (GeneID 41070) | DRSC14449 | -0.51 | 0.01 | 0.49 | -0.25
CG11035 (GeneID 40953) | DRSC14287 | -0.03 | 1.16 | -0.3 | 0.27
CG11951 (GeneID 43463) | DRSC14442 | 1.02 | -1.51 | -0.97 | -0.01
CG3104 (GeneID 33486) | DRSC00567 | 1.3 | 0.44 | 1.66 | -0.07
Psa (GeneID 38175) | DRSC08152 | -0.63 | 0.31 | -0.27 | 0.59
CG5883 (GeneID 39352) | DRSC10552 | 0.52 | 0.17 | -0.14 | 0
Lapsyn (GeneID 37418) | DRSC04249 | 0.39 | 0.46 | -0.17 | 0.68
Vta1 (GeneID 38204) | DRSC08604 | 0.77 | -1.69 | 0.06 | 0.3
Vta1 (GeneID 38204) | DRSC22848 | 0.03 | -1.69 | -1.89 | 0.28
CG18748 (GeneID 59144) | DRSC15385 | 0.27 | 0.01 | -0.53 | 0.35
CG11629 (GeneID 35431) | DRSC03695 | 0.38 | 0.19 | -0.56 | -0.09
DNaseII (GeneID 48228) | DRSC16310 | 0.19 | -0.07 | -0.03 | -0.17
CG5665 (GeneID 40243) | DRSC11783 | 0.53 | -1.45 | 3.72 | -0.42
CG12084 (GeneID 192509) | DRSC08247 | 0.01 | 0.62 | 0.98 | 0.36
Smyd3 (GeneID 44554) | DRSC17744 | 1.16 | -0.59 | 0.48 | -0.3
l(2)05714 (GeneID 46066) | DRSC03118 | 0.77 | 1.01 | 0.89 | 0.9
CG11892 (GeneID 43053) | DRSC14428 | -0.17 | -0.36 | -0.13 | -0.32
CG44085 (GeneID 34732) | DRSC02922 | -5.91 | -3.89 | -2.33 | -2.26
CG44085 (GeneID 34732) | DRSC02929 | 0.05 | 0.55 | -0.32 | 0.19
Or43b (GeneID 35743) | DRSC07486 | -0.15 | -0.22 | 1.58 | 0.56
siz (GeneID 40327) | DRSC11622 | 0.77 | 0 | -0.64 | -0.15
siz (GeneID 40327) | DRSC11689 | 0.59 | 0.84 | 3.02 | 2.11
siz (GeneID 40327) | DRSC11690 | -0.17 | -0.34 | -1.62 | 0.4
Desat2 (GeneID 41536) | DRSC15919 | 0.77 | -0.25 | 0.6 | -0.13
Dhc62B (GeneID 38226) | DRSC08655 | -0.81 | -0.57 | 0.03 | -0.1
Cht12 (GeneID 246535) | DRSC03844 | -0.11 | -0.44 | -0.03 | -0.27
spn-D (GeneID 318579) | DRSC22641 | -0.06 | 0.48 | 1.53 | -0.35
Cchl (GeneID 42590) | DRSC15949 | 0.87 | -0.12 | 0.32 | -0.53
CG30192 (GeneID 246510) | DRSC03977 | -0.19 | -0.4 | -1.6 | 0.16
Ptp99A (GeneID 43469) | DRSC13933 | 0.59 | 0.3 | -0.36 | -0.6
Ptp99A (GeneID 43469) | DRSC13939 | 0.46 | -0.28 | 0.66 | -0.24
Ptp99A (GeneID 43469) | DRSC14319 | -0.54 | -0.04 | 1.83 | 1.2
Ptp99A (GeneID 43469) | DRSC14320 | -0.12 | -0.34 | 0.64 | 1.03
Ptp99A (GeneID 43469) | DRSC16803 | 0.51 | 0.03 | -0.23 | 0.04
Ptp99A (GeneID 43469) | DRSC22125 | -4.56 | 0.58 | 0.45 | 0.78
Ptp99A (GeneID 43469) | DRSC22477 | 0.04 | 0.87 | -0.4 | 0.12
stl (GeneID 37619) | DRSC04396 | 0.82 | -2.68 | 0.46 | -0.26
CG46339 (GeneID 44359) | DRSC14136 | 0.36 | -0.05 | 0.03 | -0.02
Use1 (GeneID 39051) | DRSC10180 | 0.63 | 0.78 | 0.19 | 0.19
CG11902 (GeneID 43070) | DRSC14434 | 0.12 | 0.34 | 2.89 | -1.56
B-H2 (GeneID 32723) | DRSC19335 | -5.08 | -1.39 | -2.75 | -0.16
Cpr72Eb (GeneID 39815) | DRSC09870 | 0.03 | 0.23 | 0.82 | 0.22
CG8516 (GeneID 41206) | DRSC16437 | 0.03 | 0.12 | 1.06 | -0.17
CG17264 (GeneID 33511) | DRSC00500 | 0.25 | -0.67 | -0.23 | 1.46
Fkbp14 (GeneID 37449) | DRSC04615 | 0.29 | 1.57 | 4.74 | -0.39
CG3502 (GeneID 37695) | DRSC04381 | -0.75 | 0.55 | -0.53 | 1.36
park (GeneID 40336) | DRSC11618 | -0.13 | 0.21 | -0.18 | 0.01
hydra (GeneID 33058) | DRSC20497 | -0.44 | -0.17 | -0.78 | 0.31
Mst84B (GeneID 40840) | DRSC12579 | 0.8 | -0.28 | -0.33 | -0.04
CG8323 (GeneID 36566) | DRSC07149 | 0.2 | 0.42 | 1.2 | 0.68
CG42748 (GeneID 35442) | DRSC03712 | -0.39 | 0.9 | 0.48 | 0.68
CG42748 (GeneID 35442) | DRSC03713 | 1.1 | 0.29 | 0 | -0.18
CG42748 (GeneID 35442) | DRSC03734 | 0.29 | 0.52 | 0.53 | -0.28

9 entries already listed, ordered by “replicate 1, z-score of ERK-YFP with insulin”, ascending:
Target gene | amplicon | replicate 1, z-score of dpERK with insulin | replicate 2, z-score of dpERK with insulin | replicate 1, z-score of dpERK under basal conditions | replicate 1, z-score of ERK-YFP with insulin
Cchl (GeneID 42590) | DRSC15949 | 0.87 | -0.12 | 0.32 | -0.53
spn-D (GeneID 318579) | DRSC22641 | -0.06 | 0.48 | 1.53 | -0.35
Cht12 (GeneID 246535) | DRSC03844 | -0.11 | -0.44 | -0.03 | -0.27
siz (GeneID 40327) | DRSC11622 | 0.77 | 0 | -0.64 | -0.15
Desat2 (GeneID 41536) | DRSC15919 | 0.77 | -0.25 | 0.6 | -0.13
Dhc62B (GeneID 38226) | DRSC08655 | -0.81 | -0.57 | 0.03 | -0.1
siz (GeneID 40327) | DRSC11690 | -0.17 | -0.34 | -1.62 | 0.4
Or43b (GeneID 35743) | DRSC07486 | -0.15 | -0.22 | 1.58 | 0.56
siz (GeneID 40327) | DRSC11689 | 0.59 | 0.84 | 3.02 | 2.11
